Test results as given in PMC6389929.
No constants are given. Whether binding was seen depends on the method and setting. In cells and extracts the contact can be indirect. A yes stands for co-enrichment or nearness to the bait. Other partners may have been found. For part of these data: Where a sequence is shown, tags or fusion partners need not be part of it.

Sequences of proteins named here, by UniProt entry; tags and fusion partners are left off.
UniProt Q93009: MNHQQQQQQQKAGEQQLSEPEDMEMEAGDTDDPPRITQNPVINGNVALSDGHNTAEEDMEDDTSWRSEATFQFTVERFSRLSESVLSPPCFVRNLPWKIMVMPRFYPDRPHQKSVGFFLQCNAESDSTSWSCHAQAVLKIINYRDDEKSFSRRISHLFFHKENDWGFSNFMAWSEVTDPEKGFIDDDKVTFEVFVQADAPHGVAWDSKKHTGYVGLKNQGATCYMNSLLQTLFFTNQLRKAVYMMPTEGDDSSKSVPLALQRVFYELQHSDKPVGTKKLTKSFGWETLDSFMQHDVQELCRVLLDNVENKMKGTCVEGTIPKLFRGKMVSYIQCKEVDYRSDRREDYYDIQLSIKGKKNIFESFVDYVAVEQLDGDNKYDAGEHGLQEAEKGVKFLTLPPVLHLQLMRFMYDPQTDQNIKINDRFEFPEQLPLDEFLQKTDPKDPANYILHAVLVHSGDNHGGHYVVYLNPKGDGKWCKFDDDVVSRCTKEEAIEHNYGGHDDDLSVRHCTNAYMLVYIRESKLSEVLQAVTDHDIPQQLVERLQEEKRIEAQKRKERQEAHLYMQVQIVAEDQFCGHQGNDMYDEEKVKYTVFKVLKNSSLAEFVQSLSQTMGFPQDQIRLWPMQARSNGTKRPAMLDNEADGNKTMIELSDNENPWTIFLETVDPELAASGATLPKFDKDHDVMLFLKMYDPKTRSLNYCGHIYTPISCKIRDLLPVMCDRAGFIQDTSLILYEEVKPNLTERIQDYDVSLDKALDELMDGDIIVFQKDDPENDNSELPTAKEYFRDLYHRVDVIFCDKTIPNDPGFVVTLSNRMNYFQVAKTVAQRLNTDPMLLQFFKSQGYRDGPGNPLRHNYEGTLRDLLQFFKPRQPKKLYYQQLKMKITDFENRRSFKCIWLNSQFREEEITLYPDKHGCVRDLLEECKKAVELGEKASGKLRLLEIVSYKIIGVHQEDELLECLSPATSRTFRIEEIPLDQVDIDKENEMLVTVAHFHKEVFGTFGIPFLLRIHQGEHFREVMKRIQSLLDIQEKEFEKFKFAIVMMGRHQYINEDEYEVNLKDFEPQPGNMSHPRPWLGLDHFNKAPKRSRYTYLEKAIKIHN
UniProt P49915: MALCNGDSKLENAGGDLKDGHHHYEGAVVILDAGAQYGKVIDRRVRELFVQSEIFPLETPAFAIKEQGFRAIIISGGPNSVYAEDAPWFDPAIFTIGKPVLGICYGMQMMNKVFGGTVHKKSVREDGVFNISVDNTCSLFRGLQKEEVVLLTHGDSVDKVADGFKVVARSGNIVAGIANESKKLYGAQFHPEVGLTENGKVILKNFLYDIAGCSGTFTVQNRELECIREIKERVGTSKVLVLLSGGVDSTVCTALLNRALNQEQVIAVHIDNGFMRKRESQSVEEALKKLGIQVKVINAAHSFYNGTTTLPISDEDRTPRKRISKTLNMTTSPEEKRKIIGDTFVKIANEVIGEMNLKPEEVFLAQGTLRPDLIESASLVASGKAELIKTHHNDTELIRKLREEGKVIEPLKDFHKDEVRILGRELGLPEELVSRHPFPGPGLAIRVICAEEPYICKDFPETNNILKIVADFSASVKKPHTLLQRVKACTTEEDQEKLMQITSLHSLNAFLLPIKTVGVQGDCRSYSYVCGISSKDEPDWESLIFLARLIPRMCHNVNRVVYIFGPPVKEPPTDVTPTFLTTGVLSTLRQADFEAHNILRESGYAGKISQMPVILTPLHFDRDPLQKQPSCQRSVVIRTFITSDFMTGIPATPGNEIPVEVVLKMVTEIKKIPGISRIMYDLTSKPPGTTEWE
UniProt P51784: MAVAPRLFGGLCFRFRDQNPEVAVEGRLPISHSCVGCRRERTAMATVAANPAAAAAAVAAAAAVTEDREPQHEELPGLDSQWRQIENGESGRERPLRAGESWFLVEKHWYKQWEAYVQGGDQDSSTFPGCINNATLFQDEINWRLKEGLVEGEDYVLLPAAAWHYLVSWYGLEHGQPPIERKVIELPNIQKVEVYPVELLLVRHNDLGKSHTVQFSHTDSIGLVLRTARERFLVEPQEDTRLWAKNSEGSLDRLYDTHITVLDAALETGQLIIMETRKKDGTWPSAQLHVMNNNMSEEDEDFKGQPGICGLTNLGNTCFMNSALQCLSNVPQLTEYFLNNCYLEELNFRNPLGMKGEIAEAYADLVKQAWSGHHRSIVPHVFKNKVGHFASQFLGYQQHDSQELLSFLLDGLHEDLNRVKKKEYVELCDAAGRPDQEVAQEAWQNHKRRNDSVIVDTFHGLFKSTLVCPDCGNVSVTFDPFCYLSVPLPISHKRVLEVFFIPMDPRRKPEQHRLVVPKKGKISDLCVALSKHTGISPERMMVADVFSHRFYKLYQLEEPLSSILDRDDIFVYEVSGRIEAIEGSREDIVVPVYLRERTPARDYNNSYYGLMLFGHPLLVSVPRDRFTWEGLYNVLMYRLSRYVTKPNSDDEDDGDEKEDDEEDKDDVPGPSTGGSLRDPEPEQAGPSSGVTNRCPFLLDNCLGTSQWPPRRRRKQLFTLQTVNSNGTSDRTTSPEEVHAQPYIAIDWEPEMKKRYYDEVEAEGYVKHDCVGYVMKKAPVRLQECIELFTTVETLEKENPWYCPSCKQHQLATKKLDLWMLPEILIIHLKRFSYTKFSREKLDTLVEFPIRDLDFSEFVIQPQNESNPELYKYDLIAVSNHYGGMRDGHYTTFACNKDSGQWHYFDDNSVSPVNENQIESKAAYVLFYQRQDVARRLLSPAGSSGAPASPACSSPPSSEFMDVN

T1: FLAGBirA*-tagged FBXO38 (UniProt Q6PIJ6)
T1 sequence: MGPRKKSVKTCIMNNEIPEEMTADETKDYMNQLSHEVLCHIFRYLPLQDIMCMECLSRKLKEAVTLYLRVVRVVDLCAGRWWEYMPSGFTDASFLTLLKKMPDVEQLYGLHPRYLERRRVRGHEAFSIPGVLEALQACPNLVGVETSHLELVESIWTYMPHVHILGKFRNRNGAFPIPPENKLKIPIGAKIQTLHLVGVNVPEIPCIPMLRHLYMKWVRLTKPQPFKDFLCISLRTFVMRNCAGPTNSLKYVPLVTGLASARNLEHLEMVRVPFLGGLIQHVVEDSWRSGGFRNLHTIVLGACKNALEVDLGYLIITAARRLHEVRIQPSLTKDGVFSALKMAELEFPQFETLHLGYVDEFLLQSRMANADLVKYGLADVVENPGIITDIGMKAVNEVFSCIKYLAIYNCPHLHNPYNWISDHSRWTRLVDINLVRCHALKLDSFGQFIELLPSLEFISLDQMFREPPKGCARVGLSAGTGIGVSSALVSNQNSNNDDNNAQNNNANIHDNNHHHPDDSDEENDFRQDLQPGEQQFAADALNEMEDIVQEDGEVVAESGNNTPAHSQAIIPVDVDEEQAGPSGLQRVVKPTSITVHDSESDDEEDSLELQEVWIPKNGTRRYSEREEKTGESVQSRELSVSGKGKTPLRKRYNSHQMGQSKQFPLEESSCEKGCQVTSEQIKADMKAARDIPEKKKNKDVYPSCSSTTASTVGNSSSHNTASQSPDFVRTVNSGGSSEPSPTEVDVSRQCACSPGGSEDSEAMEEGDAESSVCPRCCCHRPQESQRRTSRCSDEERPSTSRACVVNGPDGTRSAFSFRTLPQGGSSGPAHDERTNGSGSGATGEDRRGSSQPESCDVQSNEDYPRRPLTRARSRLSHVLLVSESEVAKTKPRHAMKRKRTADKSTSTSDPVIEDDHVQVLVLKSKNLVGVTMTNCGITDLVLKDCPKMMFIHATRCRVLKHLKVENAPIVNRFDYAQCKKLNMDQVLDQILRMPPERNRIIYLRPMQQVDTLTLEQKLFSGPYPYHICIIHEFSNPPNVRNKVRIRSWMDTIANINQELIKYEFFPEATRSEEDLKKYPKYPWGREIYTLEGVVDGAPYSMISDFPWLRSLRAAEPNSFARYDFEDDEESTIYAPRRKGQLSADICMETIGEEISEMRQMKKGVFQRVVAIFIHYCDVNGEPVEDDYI

B1: DHX40 (protein, UniProt Q8IX18 1-779)
chain: MSRFPAVAGRAPRRQEEGERSRDLQEERLSAVCIADREEKGCTSQEGGTTPTFPIQKQRKKIIQAVRDNSFLIVTGNTGSGKTTQLPKYLYEAGFSQHGMIGVTQPRKVAAISVAQRVAEEMKCTLGSKVGYQVRFDDCSSKETAIKYMTDGCLLKHILGDPNLTKFSVIILDEAHERTLTTDILFGLLKKLFQEKSPNRKEHLKVVVMSATMELAKLSAFFGNCPIFDIPGRLYPVREKFCNLIGPRDRENTAYIQAIVKVTMDIHLNEMAGDILVFLTGQFEIEKSCELLFQMAESVDYDYDVQDTTLDGLLILPCYGSMTTDQQRRIFLPPPPGIRKCVISTNISATSLTIDGIRYVVDGGFVKQLNHNPRLGLDILEVVPISKSEALQRSGRAGRTSSGKCFRIYSKDFWNQCMPDHVIPEIKRTSLTSVVLTLKCLAIHDVIRFPYLDPPNERLILEALKQLYQCDAIDRSGHVTRLGLSMVEFPLPPHLTCAVIKAASLDCEDLLLPIAAMLSVENVFIRPVDPEYQKEAEQRHRELAAKAGGFNDFATLAVIFEQCKSSGAPASWCQKHWIHWRCLFSAFRVEAQLRELIRKLKQQSDFPKETFEGPKHEVLRRCLCAGYFKNVARRSVGRTFCTMDGRGSPVHIHPSSALHEQETKLEWIIFHEVLVTTKVYARIVCPIRYEWVRDLLPKLHEFNAHDLSSVARREVREDARRRWTNKENVKQLKDGISKDVLKKMQRRNDDKSISDARARFLERKQQRTQDHSDTRKETG
B2: Peptidylprolyl Isomerase PPIL4 (protein, UniProt Q8WUA2 1-492)
chain: MAVLLETTLGDVVIDLYTEERPRACLNFLKLCKIKYYNYCLIHNVQRDFIIQTGDPTGTGRGGESIFGQLYGDQASFFEAEKVPRIKHKKKGTVSMVNNGSDQHGSQFLITTGENLDYLDGVHTVFGEVTEGMDIIKKINETFVDKDFVPYQDIRINHTVILDDPFDDPPDLLIPDRSPEPTREQLDSGRIGADEEIDDFKGRSAEEVEEIKAEKEAKTQAILLEMVGDLPDADIKPPENVLFVCKLNPVTTDEDLEIIFSRFGPIRSCEVIRDWKTGESLCYAFIEFEKEEDCEKAFFKMDNVLIDDRRIHVDFSQSVAKVKWKGKGGKYTKSDFKEYEKEQDKPPNLVLKDKVKPKQDTKYDLILDEQAEDSKSSHSHTSKKHKKKTHHCSEEKEDEDYMPIKNTNQDIYREMGFGHYEEEESCWEKQKSEKRDRTQNRSRSRSRERDGHYSNSHKSKYQTDLYERERSKKRDRSRSPKKSKDKEKSKYR
B3: ATM-dependant phosphatase PPM1G (protein, UniProt O15355 1-546)
chain: MGAYLSQPNTVKCSGDGVGAPRLPLPYGFSAMQGWRVSMEDAHNCIPELDSETAMFSVYDGHGGEEVALYCAKYLPDIIKDQKAYKEGKLQKALEDAFLAIDAKLTTEEVIKELAQIAGRPTEDEDEKEKVADEDDVDNEEAALLHEEATMTIEELLTRYGQNCHKGPPHSKSGGGTGEEPGSQGLNGEAGPEDSTRETPSQENGPTAKAYTGFSSNSERGTEAGQVGEPGIPTGEAGPSCSSASDKLPRVAKSKFFEDSEDESDEAEEEEEDSEECSEEEDGYSSEEAENEEDEDDTEEAEEDDEEEEEEMMVPGMEGKEEPGSDSGTTAVVALIRGKQLIVANAGDSRCVVSEAGKALDMSYDHKPEDEVELARIKNAGGKVTMDGRVNGGLNLSRAIGDHFYKRNKNLPPEEQMISALPDIKVLTLTDDHEFMVIACDGIWNVMSSQEVVDFIQSKISQRDENGELRLLSSIVEELLDQCLAPDTSGDGTGCDNMTCIIICFKPRNTAELQPESGKRKLEEVLSTEGAEENGNSDKKKKAKRD
B4: Lamina-associated polypeptide TMPO (protein, UniProt P42166 1-694)
chain: MPEFLEDPSVLTKDKLKSELVANNVTLPAGEQRKDVYVQLYLQHLTARNRPPLPAGTNSKGPPDFSSDEEREPTPVLGSGAAAAGRSRAAVGRKATKKTDKPRQEDKDDLDVTELTNEDLLDQLVKYGVNPGPIVGTTRKLYEKKLLKLREQGTESRSSTPLPTISSSAENTRQNGSNDSDRYSDNEEGKKKEHKKVKSTRDIVPFSELGTTPSGGGFFQGISFPEISTRPPLGSTELQAAKKVHTSKGDLPREPLVATNLPGRGQLQKLASERNLFISCKSSHDRCLEKSSSSSSQPEHSAMLVSTAASPSLIKETTTGYYKDIVENICGREKSGIQPLCPERSHISDQSPLSSKRKALEESESSQLISPPLAQAIRDYVNSLLVQGGVGSLPGTSNSMPPLDVENIQKRIDQSKFQETEFLSPPRKVPRLSEKSVEERDSGSFVAFQNIPGSELMSSFAKTVVSHSLTTLGLEVAKQSQHDKIDASELSFPFHESILKVIEEEWQQVDRQLPSLACKYPVSSREATQILSVPKVDDEILGFISEATPLGGIQAASTESCNQQLDLALCRAYEAAASALQIATHTAFVAKAMQADISQAAQILSSDPSRTHQALGILSKTYDAASYICEAAFDEVKMAAHTMGNATVGRRYLWLKDCKINLASKNKLASTPFKGGTLFGGEVCKVIKKRGNKH
B5: DEAD-box helicase DDX24 (protein, UniProt Q9GZR7 1-859)
chain: MKLKDTKSRPKQSSCGKFQTKGIKVVGKWKEVKIDPNMFADGQMDDLVCFEELTDYQLVSPAKNPSSLFSKEAPKRKAQAVSEEEEEEEGKSSSPKKKIKLKKSKNVATEGTSTQKEFEVKDPELEAQGDDMVCDDPEAGEMTSENLVQTAPKKKKNKGKKGLEPSQSTAAKVPKKAKTWIPEVHDQKADVSAWKDLFVPRPVLRALSFLGFSAPTPIQALTLAPAIRDKLDILGAAETGSGKTLAFAIPMIHAVLQWQKRNAAPPPSNTEAPPGETRTEAGAETRSPGKAEAESDALPDDTVIESEALPSDIAAEARAKTGGTVSDQALLFGDDDAGEGPSSLIREKPVPKQNENEEENLDKEQTGNLKQELDDKSATCKAYPKRPLLGLVLTPTRELAVQVKQHIDAVARFTGIKTAILVGGMSTQKQQRMLNRRPEIVVATPGRLWELIKEKHYHLRNLRQLRCLVVDEADRMVEKGHFAELSQLLEMLNDSQYNPKRQTLVFSATLTLVHQAPARILHKKHTKKMDKTAKLDLLMQKIGMRGKPKVIDLTRNEATVETLTETKIHCETDEKDFYLYYFLMQYPGRSLVFANSISCIKRLSGLLKVLDIMPLTLHACMHQKQRLRNLEQFARLEDCVLLATDVAARGLDIPKVQHVIHYQVPRTSEIYVHRSGRTARATNEGLSLMLIGPEDVINFKKIYKTLKKDEDIPLFPVQTKYMDVVKERIRLARQIEKSEYRNFQACLHNSWIEQAAAALEIELEEDMYKGGKADQQEERRRQKQMKVLKKELRHLLSQPLFTESQKTKYPTQSGKPPLLVSAPSKSESALSCLSKQKKKKTKKPKEPQPEQPQPSTSAN
B6: F-box protein FBXO38 (endogenous) (protein, UniProt Q6PIJ6 1-1188)
chain: MGPRKKSVKTCIMNNEIPEEMTADETKDYMNQLSHEVLCHIFRYLPLQDIMCMECLSRKLKEAVTLYLRVVRVVDLCAGRWWEYMPSGFTDASFLTLLKKMPDVEQLYGLHPRYLERRRVRGHEAFSIPGVLEALQACPNLVGVETSHLELVESIWTYMPHVHILGKFRNRNGAFPIPPENKLKIPIGAKIQTLHLVGVNVPEIPCIPMLRHLYMKWVRLTKPQPFKDFLCISLRTFVMRNCAGPTNSLKYVPLVTGLASARNLEHLEMVRVPFLGGLIQHVVEDSWRSGGFRNLHTIVLGACKNALEVDLGYLIITAARRLHEVRIQPSLTKDGVFSALKMAELEFPQFETLHLGYVDEFLLQSRMANADLVKYGLADVVENPGIITDIGMKAVNEVFSCIKYLAIYNCPHLHNPYNWISDHSRWTRLVDINLVRCHALKLDSFGQFIELLPSLEFISLDQMFREPPKGCARVGLSAGTGIGVSSALVSNQNSNNDDNNAQNNNANIHDNNHHHPDDSDEENDFRQDLQPGEQQFAADALNEMEDIVQEDGEVVAESGNNTPAHSQAIIPVDVDEEQAGPSGLQRVVKPTSITVHDSESDDEEDSLELQEVWIPKNGTRRYSEREEKTGESVQSRELSVSGKGKTPLRKRYNSHQMGQSKQFPLEESSCEKGCQVTSEQIKADMKAARDIPEKKKNKDVYPSCSSTTASTVGNSSSHNTASQSPDFVRTVNSGGSSEPSPTEVDVSRQCACSPGGSEDSEAMEEGDAESSVCPRCCCHRPQESQRRTSRCSDEERPSTSRACVVNGPDGTRSAFSFRTLPQGGSSGPAHDERTNGSGSGATGEDRRGSSQPESCDVQSNEDYPRRPLTRARSRLSHVLLVSESEVAKTKPRHAMKRKRTADKSTSTSDPVIEDDHVQVLVLKSKNLVGVTMTNCGITDLVLKDCPKMMFIHATRCRVLKHLKVENAPIVNRFDYAQCKKLNMDQVLDQILRMPPERNRIIYLRPMQQVDTLTLEQKLFSGPYPYHICIIHEFSNPPNVRNKVRIRSWMDTIANINQELIKYEFFPEATRSEEDLKKYPKYPWGREIYTLEGVVDGAPYSMISDFPWLRSLRAAEPNSFARYDFEDDEESTIYAPRRKGQLSADICMETIGEEISEMRQMKKGVFQRVVAIFIHYCDVNGEPVEDDYI

biological target: T1, FLAGBirA*-tagged FBXO38; assay: proximity labelling; BioID: FLAGBirA*-FBXO38 induced with tetracycline in 293 T-REx cells with 50 µM biotin for 24 hrs; Streptavidin Sepharose beads; LC-MS/MS; FLAGBirA* alone as control; BFDR ≤ 0.01

binding, binds:
USP7 (endogenous) (from UniProt Q93009 1-1102) (enzyme)

biological target: FLAG-tagged USP7 (USP7 with C-terminal sequential peptide affinity (SPA) tag) (UniProt Q93009); assay: affinity purification with mass spectrometry; USP7 with C-terminal SPA tag delivered by adenovirus to AGS cells; high salt extraction, dialysed to 0.1 M potassium acetate; anti-FLAG M2 resin 4 hours at 4 °C; LC-MS/MS; FLAG-β-gal as negative control

binding, binds:
GMP synthetase (GMPS) (from UniProt P49915 1-693), deubiquitylating enzyme USP11 (from UniProt P51784 1-963), B1, B2, B3, B4, B5, B6
